PubChem BioAssay AID1259425 – University of Nebraska Medical Center | 2018
Assay: 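Find knockdowns that reproduce the gene expression pattern seen when KSR1 is lost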 (primary screen). System: HCT116 human colon cancer cells. Reagent: siRNA pool against human genes, 50 nM siRNA. Measurement: 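mRNA of six signature genes measured together by branched-DNA assay after 50 nM siRNA pool, blank removed, divided by geometric mean of two housekeeping genes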. Direction: BNIP3L mRNA: higher = more BNIP3L transcript after knockdown; NDRG1 mRNA: higher = more NDRG1 transcript after knockdown; BNIP3 mRNA: higher = more BNIP3 transcript after knockdown; ALDOC mRNA: higher = more ALDOC transcript after knockdown; ACSL5 mRNA: higher = more ACSL5 transcript after knockdown.
The whole screen tested about 14,000 reagents; below is a random part of them. The record does not give: the time to read-out.

| Gene | PubChem SID | BNIP3L mRNA, set 1 | NDRG1 mRNA, set 1 | BNIP3 mRNA, set 1 | ALDOC mRNA, set 1 | ACSL5 mRNA, set 1 |
| --- | --- | --- | --- | --- | --- | --- |
| BMP3 (GeneID 651) | SID363992489 | 0.0413 | 0.28 | 0.158 | 0.0171 | 0.205 |
| CST2 (GeneID 1470) | SID363992603 | 0.101 | 0.257 | 0.303 | 0.00754 | 0.17 |
| DAP3 (GeneID 7818) | SID363995600 | 0.0791 | 0.117 | 0.302 | 0.0185 | 0.156 |
| TINF2 (GeneID 26277) | SID363998335 | 0.16 | 0.619 | 0.349 | 0.0459 | 0.317 |
| ATG3 (GeneID 64422) | SID364002473 | 0.111 | 0.207 | 0.228 | 0.0148 | 0.286 |
| PLK4 (GeneID 10733) | SID363998699 | 0.224 | 0.16 | 1.04 | 0.0216 | 0.225 |
| TM4SF20 (GeneID 79853) | SID364003066 | 0.259 | 0.209 | 0.511 | 0.0698 | 0.304 |
| FMO3 (GeneID 2328) | SID363997651 | 0.114 | 0.316 | 0.21 | 0.00914 | 0.201 |
| DTNBP1 (GeneID 84062) | SID364003779 | 0.0682 | 0.191 | 0.315 | 0.035 | 0.16 |
| MIER3 (GeneID 166968) | SID364004731 | 0.113 | 0.141 | 0.378 | 0.0175 | 0.152 |
| POLR3GL (GeneID 84265) | SID364003891 | 0.147 | 0.111 | 0.353 | 0.0495 | 0.18 |
| RBP5 (GeneID 83758) | SID364003668 | 0.109 | 0.0561 | 0.468 | 0.0802 | 0.166 |
| LMO7 (GeneID 4008) | SID363996269 | 0.09 | 0.0935 | 0.188 | 0.0275 | 0.221 |
| ZNF208 (GeneID 7757) | SID363997856 | 0.129 | 0.193 | 0.324 | 0.0407 | 0.146 |
| DBH (GeneID 1621) | SID363992077 | 0.0915 | 0.252 | 0.32 | 0.0531 | 0.158 |
| PRUNE2 (GeneID 158471) | SID364005133 | 0.0649 | 0.0441 | 0.341 | 0.017 | 0.1 |
| LAMA5 (GeneID 3911) | SID363996460 | 0.0688 | 0.0986 | 0.234 | 0.0147 | 0.281 |
| CTDP1 (GeneID 9150) | SID363995674 | 0.0539 | 0.136 | 0.22 | 0.0271 | 0.165 |
| BET1L (GeneID 51272) | SID364000171 | 0.0589 | 0.0571 | 0.33 | 0.0405 | 0.0725 |
| NUP133 (GeneID 55746) | SID364000897 | 0.0677 | 0.108 | 0.263 | 0.0173 | 0.077 |
| MYO5B (GeneID 4645) | SID364005431 | 0.13 | 0.125 | 0.38 | 0.039 | 0.193 |
| MTMR10 (GeneID 54893) | SID364000507 | 0.0861 | 0.297 | 0.31 | 0.0412 | 0.152 |
| NONO (GeneID 4841) | SID363998005 | 0.202 | 0.2 | 0.39 | 0.0564 | 0.396 |
| SPI1 (GeneID 6688) | SID363994261 | 0.141 | 0.331 | 0.618 | 0.0132 | 0.423 |
| GSAP (GeneID 54103) | SID364005498 | 0.0866 | 0.189 | 0.217 | 0.0282 | 0.135 |
| LAMB1 (GeneID 3912) | SID363993489 | 0.155 | 0.142 | 0.199 | 0.0443 | 0.0974 |
| CACNA2D3 (GeneID 55799) | SID364001039 | 0.159 | 0.081 | 0.319 | 0.0403 | 0.149 |
| GLCE (GeneID 26035) | SID363999568 | 0.127 | 0.334 | 0.43 | 0.0276 | 0.16 |
| CD52 (GeneID 1043) | SID363993021 | 0.062 | 0.0754 | 0.151 | 0.0452 | 0.0896 |
| SIRAL2 (GeneID 55007) | SID364000636 | 0.268 | 0.211 | 0.32 | 0.0178 | 0.247 |
| FAM53B (GeneID 9679) | SID363999016 | 0.0821 | 0.17 | 0.291 | 0.0296 | 0.113 |
| STOML2 (GeneID 30968) | SID363998520 | 0.158 | 0.701 | 0.229 | 0.0259 | 0.462 |
| IL37 (GeneID 27178) | SID363998854 | 0.0817 | 0.319 | 0.218 | 0.0291 | 0.0637 |
| NAA40 (GeneID 79829) | SID364003044 | 0.0697 | 0.198 | 0.229 | 0.0418 | 0.178 |

Reformatted: 2 of the entries above.
Gene	PubChem SID	BNIP3L mRNA, set 1	NDRG1 mRNA, set 1	BNIP3 mRNA, set 1	ALDOC mRNA, set 1	ACSL5 mRNA, set 1
GSAP (GeneID 54103)	SID364005498	0.0866	0.189	0.217	0.0282	0.135
LAMB1 (GeneID 3912)	SID363993489	0.155	0.142	0.199	0.0443	0.0974
